Reference: PubChem BioAssay AID504834 (National Center for Advancing Translational Sciences (NCATS), 2011)
Screen size: about 320,000 compounds; about 22,000 (6.9%) were called active. Inconclusive means that the source gave no clear call. Such entries were picked first, then a sample of the others. The call rests on the fitted dose curve; in most records, active means well fitted inhibition curve with a large enough effect; inconclusive means small, poorly fitted or top-dose-only effect, or another doubt; inactive means no such curve, though single readings can be large or run the other way. Potencies beside an inconclusive call are fits to weak or partial responses and may not hold up.

Experiment: Primary qHTS for delayed death inhibitors of the malarial parasite plastid, 96 hour incubation
Conditions: P. falciparum luciferase reporter growth; series mostly up to 28.7 µM
Summary of the method: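 Cell-based qHTS: luciferase-tagged P. falciparum in erythrocytes (2% hematocrit, 0.05% parasitemia final) incubated with compounds for 96 hours, 37 C, 5% CO2; luciferase detection reagent then added and luminescence measured.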
On the % scale 0 is the no-effect control and ±100 the full control effect; potency means the concentration at half of the fitted maximal effect.

Row | SMILES | Potency | activity change, negative = inhibition
1 | CC(C)C(=O)NNC(=O)CSc1ncnc2c1cnn2-c1ccccc1Cl | inactive | 
2 | O=C(c1cc(COc2c(F)cccc2F)on1)N1CCc2ccccc2C1 | inconclusive: 10.4 µM [inhibitor, single point] | 
3 | O=C(NCC1CC1)Nc1cccs1 | inactive | 
4 | COc1ccc(CNC(=O)CN(CCC(C)C)S(=O)(=O)c2ccc3c(c2)OCCO3)cc1 | inconclusive: 13.1 µM [inhibitor, single point] | 
5 | COc1ccc(CC(=O)N2CCN=C2SCc2cccc([N+](=O)[O-])c2)cc1 | inconclusive: 18.5 µM [inhibitor, single point] | 
6 | CC(C)(C)c1ccc(C(=O)Nc2sc3c(c2C(=O)O)CCC3)cc1 | inactive | 
7 | O=C(c1ccc(NC2=NC3CS(=O)(=O)CC3S2)cc1)N1CCc2ccccc2C1 (centres undefined) | inconclusive: 11.7 µM [inhibitor, single point] | 
8 | Cc1ccc(NC(=S)N(CCCN2CCOCC2)Cc2cccnc2)cc1C | inactive | 
9 | Cc1nc2cc(NC(=O)Nc3ccc(Br)cc3)ccc2o1 | inactive | 
10 | CCOc1ccc(CCNC(=O)c2c(C)nn(-c3ccccc3)c2Cl)cc1OCC | inactive | 
11 | COc1ccc(NC(=S)NCc2cccs2)cc1 | inconclusive: 14.7 µM [inhibitor, partial curve] | 
12 | CCOc1cc(N2CCOCC2)c(OCC)cc1NC(=O)Cc1ccccc1 | inconclusive: 10.4 µM [inhibitor, single point] | 
13 | Cc1ccc(S(=O)(=O)N2CCC(C(=O)NCC3CCCO3)CC2)cc1 (centres undefined) | inactive | 
14 | O=C(Cc1ccccc1)Nc1nnc(SCC(=O)NC2CCCC2)s1 | inconclusive: 0.0262 µM [inhibitor, full curve, poor fit] | 
15 | CCOC(=O)N1CCC(=NNc2ccnc3cc(Cl)ccc23)CC1 | active: 2.62 µM | 
16 | Cc1cc(C2=NNC(=NCc3ccccc3)SC2)c(C)n1-c1c(C)n(C)n(-c2ccccc2)c1=O | inconclusive: 4.65 µM [inhibitor, partial curve, poor fit] | 
17 | Cc1cccc(OCc2nnc(SCC(=O)c3cccs3)n2C)c1C | active: 8.28 µM | 
18 | CCOC(=O)/C(=C/C=C1\Sc2cc(OCC)c(OCC)cc2N1CC)C(C)=O | inactive | 
19 | FC(F)Oc1ccc(NC(=S)NC23CC4CC(CC(C4)C2)C3)cc1 | active: 4.15 µM | 
20 | CCOc1ccc(/C(CC)=N/NC(=O)C2(C)CC2(Br)Br)cc1 (centres undefined) | inconclusive: 14.7 µM [inhibitor, single point] | 
21 | CCc1cccc2[nH]c3cc([N+](=O)[O-])ccc3c12 | inconclusive: 13.1 µM [inhibitor, single point] | 
22 | COc1ccc(C(=O)N/C(=C\c2ccco2)C(=O)NCc2cccnc2)cc1 | active: 1.17 µM | 
23 | Cc1cccc(C(=O)N2CCC(c3nc4ccccc4s3)CC2)c1 | inconclusive: 0.415 µM [inhibitor, full curve, poor fit] | 

Row | SMILES | Potency | activity change, negative = inhibition
24 | O=c1[nH]c2cc3c(cc2cc1CN(CCO)S(=O)(=O)c1ccccc1)OCCO3 | inactive | 
25 | Cc1ccc(NC(=S)NCCCN2CCOCC2)cc1 | inconclusive: 18.5 µM [inhibitor, single point] | 
26 | Sc1nnc(-c2ccc(Cl)cc2)n1Cc1ccccc1 | inconclusive: 18.5 µM [inhibitor, single point] | 
27 | COc1ccccc1C(=O)Nc1ccc2c(c1)OCCO2 | inconclusive: 8.28 µM [inhibitor, single point] | 
28 | COc1ccc(Cl)cc1CNCCCSc1ncccn1 | inconclusive: 10.4 µM [inhibitor, single point] | 
29 | O=C(c1cc(COc2ccc(F)cc2Cl)on1)N1CCCCC1c1cccnc1 (centres undefined) | inconclusive: 18.5 µM [inhibitor, single point] | 
30 | Cc1c(O)ccc(/C=N/Nc2ncccc2[N+](=O)[O-])c1O | inconclusive: 0.0029 µM [inhibitor, full curve, poor fit] | 
31 | COc1cccc(-c2sc3ccc(OC)cc3c2-c2ccc(OC)cc2F)c1 | inconclusive: 13.1 µM [inhibitor, single point] | 
32 | Cc1cc(C)cc(NC(=O)N2CCN(S(C)(=O)=O)CC2)c1 |  | inactive: -10.9% [at 5.75 µM]
33 | CNC(=O)c1ccsc1NC(=O)CS(=O)(=O)c1ccc(Cl)cc1 | inconclusive: 13.1 µM [inhibitor, partial curve, poor fit] | 
34 | O=C(Nc1ccc(F)c(Cl)c1)c1cc(-c2ccco2)on1 | inactive | 
35 | Cc1cccc(NC(=O)c2ccc(S(=O)(=O)N3CCCCC3)cc2)c1 | inconclusive: 16.5 µM [inhibitor, partial curve, poor fit] | 
36 | CCN1CCC(NC(=O)Nc2ccc(F)cc2)CC1 | inconclusive: 20.8 µM [inhibitor, partial curve, poor fit] | 
37 | CN(C)c1ccc(/C=C/C(=O)c2ccc(C(C)(C)C)cc2)cc1[N+](=O)[O-] | inconclusive: 13.1 µM [inhibitor, single point] | 
38 | Cc1cc(C)c(OCC(=O)OCC(=O)N2CCCc3ccccc32)c(C)c1 | inconclusive: 18.5 µM [inhibitor, single point] | 
39 | CCc1cc2cccc(C)c2nc1SCC(=O)c1ccc(NC(C)=O)cc1 | inconclusive: 0.185 µM [inhibitor, full curve, poor fit] | 
40 | CC1CN(C(=O)CCC(=O)N2CCC3(CC2)OCCO3)c2cc(Cl)ccc2O1 (centres undefined) | inconclusive: 18.5 µM [inhibitor, single point] | 
41 | C=CCn1c(SCC(=O)Nc2ccc3c(c2)CCC3)nc2ccccc2c1=O | inconclusive: 16.5 µM [inhibitor, partial curve, poor fit] | 
42 | O=C(C#Cc1cccc([N+](=O)[O-])c1)c1ccccc1 | inactive | 
43 | CN(C)c1ccc(C2NCCS2)cc1 (centres undefined) | inconclusive: 10.4 µM [inhibitor, single point] | 
44 | COCCNc1nc2c(c(=O)n(C)c(=O)n2C)n1Cc1cccc(C(F)(F)F)c1 | inconclusive: 18.5 µM [inhibitor, single point] | 
45 | O=c1cc(CSc2ccc([N+](=O)[O-])cc2)nc2sccn12 | inconclusive: 4.65 µM [inhibitor, single point] | 
46 | COc1ccc(Cl)cc1NC(=O)CN(C)C(=O)c1ccc(N2CCCCCC2)c([N+](=O)[O-])c1 | inconclusive: 18.5 µM [inhibitor, partial curve, poor fit] | 

Row | SMILES | Potency | activity change, negative = inhibition
47 | CC(=O)Nc1ccc2c(c1)ncn2-c1ccc(C)cc1 | inactive | 
48 | Cc1ccccc1C(=O)Nc1ccccc1C(=O)NCc1ccccc1 | inconclusive: 20.8 µM [inhibitor, partial curve, poor fit] | 
49 | O=C1c2ccccc2-c2c1cccc2C(=O)N1CCN(C(=O)c2ccco2)CC1 | inactive | 
50 | Cc1nc2scc(C)n2c(=O)c1S(=O)(=O)N1CCN(c2ccc([N+](=O)[O-])cc2)CC1 | inconclusive: 6.57 µM [inhibitor, partial curve, poor fit] | 
51 | COc1cc(CC(=O)Nc2ccc(Cl)c(C(F)(F)F)c2)cc(OC)c1OC | inconclusive: 18.5 µM [inhibitor, single point] | 
52 | COc1cccc(NC(=O)CN(C)C(=O)c2ccc(-n3cncn3)c([N+](=O)[O-])c2)c1 | inactive | 
53 | CCNC(=O)CC1C(=O)N(c2ccc(C)cc2)C(=O)N1CCC(C)C (centres undefined) | active: 11.7 µM | 
54 | c1ccc(OCCOc2ccccc2-c2nnco2)cc1 | active: 5.22 µM | 
55 | CCC1=Nc2cc(C(=O)NCc3ccco3)ccc2Sc2ccc(Cl)cc21 | inactive | 
56 | COc1ccc(CNS(=O)(=O)c2ccc(F)c(C(=O)Nc3ccccc3OC)c2)cc1 | active: 2.33 µM | 
57 | c1ccc(CNCc2ccc3c(c2)OCO3)nc1 | inconclusive: 16.5 µM [inhibitor, partial curve, poor fit] | 
58 | CCCCc1ccc(/C=C(\C#N)C(N)=S)s1 | inactive | 
59 | COCCn1c(=N)c(S(=O)(=O)c2ccc(F)cc2)cc2c(=O)n3cccc(C)c3nc21 | inconclusive: 11.7 µM [inhibitor, single point] | 
60 | COCCN(C(=O)CSc1nncn1-c1ccccc1)c1c(N)n(Cc2ccccc2)c(=O)[nH]c1=O | inactive | 
61 | COc1ccc(Cl)c(Cn2c(NCC(C)O)nc3c2c(=O)n(C)c(=O)n3C)c1 (centres undefined) | inconclusive: 4.65 µM [inhibitor, partial curve, poor fit] | 
62 | CCOC(=O)[C@@H]1[C@H]2COc3ccc(Br)cc3[C@@H]2N2C(=O)N(c3ccc(F)cc3)C(=O)[C@]12C | inconclusive: 11.7 µM [inhibitor, partial curve, poor fit] | 
63 | CCN(CC)C(=O)Cn1cc(S(=O)(=O)CC(=O)Nc2ccc(F)cc2F)c2ccccc21 | inactive | 
64 | CC(C)(C)C(=O)NCCN1C(=O)S/C(=C\c2ccc([N+](=O)[O-])cc2)C1=O | inconclusive: 20.8 µM [inhibitor, single point] | 
65 | CCOC(=O)c1[nH]c(C)c(C(=O)OC)c1C | inactive | 
66 | COc1ccc(NC(=O)C2CCN(S(=O)(=O)c3cn(C)nc3C)CC2)cc1 | inconclusive: 10.4 µM [inhibitor, partial curve] | 
67 | Cc1cc(=O)oc2ccc(OCC(=O)N3CCc4ccccc43)cc12 | inconclusive: 13.1 µM [inhibitor, single point] | 
68 | Cc1cc(O)c2c(C)c(CC(=O)N3C[C@H]4C[C@@H](C3)c3cccc(=O)n3C4)c(=O)oc2c1 | inconclusive: 0.0657 µM [inhibitor, full curve, poor fit] | 
69 | Cc1ncc2c(c1OC(=O)c1ccc([N+](=O)[O-])cc1)COC(C)(C)OC2 | inconclusive: 9.28 µM [inhibitor, partial curve, poor fit] | 

Six of the compounds above, comma-delimited:
Row,SMILES,Potency,"activity change, negative = inhibition"
58,CCCCc1ccc(/C=C(\C#N)C(N)=S)s1,inactive,
59,COCCn1c(=N)c(S(=O)(=O)c2ccc(F)cc2)cc2c(=O)n3cccc(C)c3nc21,"inconclusive: 11.7 µM [inhibitor, single point]",
60,COCCN(C(=O)CSc1nncn1-c1ccccc1)c1c(N)n(Cc2ccccc2)c(=O)[nH]c1=O,inactive,
61,COc1ccc(Cl)c(Cn2c(NCC(C)O)nc3c2c(=O)n(C)c(=O)n3C)c1 (centres undefined),"inconclusive: 4.65 µM [inhibitor, partial curve, poor fit]",
62,CCOC(=O)[C@@H]1[C@H]2COc3ccc(Br)cc3[C@@H]2N2C(=O)N(c3ccc(F)cc3)C(=O)[C@]12C,"inconclusive: 11.7 µM [inhibitor, partial curve, poor fit]",
63,CCN(CC)C(=O)Cn1cc(S(=O)(=O)CC(=O)Nc2ccc(F)cc2F)c2ccccc21,inactive,
